Assay results published in the supplement of paper PMC10849652.
This is one part of the list.

By UniProt entry, the sequences of proteins in these tests, tags left out. Where a name states a change or a piece, a line headed by the entry shows the natural chain unless it says otherwise.
UniProt O00483, whole entry, looked up: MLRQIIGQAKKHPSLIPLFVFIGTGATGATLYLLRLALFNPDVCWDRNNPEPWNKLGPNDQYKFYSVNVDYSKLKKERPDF
UniProt Q147X3: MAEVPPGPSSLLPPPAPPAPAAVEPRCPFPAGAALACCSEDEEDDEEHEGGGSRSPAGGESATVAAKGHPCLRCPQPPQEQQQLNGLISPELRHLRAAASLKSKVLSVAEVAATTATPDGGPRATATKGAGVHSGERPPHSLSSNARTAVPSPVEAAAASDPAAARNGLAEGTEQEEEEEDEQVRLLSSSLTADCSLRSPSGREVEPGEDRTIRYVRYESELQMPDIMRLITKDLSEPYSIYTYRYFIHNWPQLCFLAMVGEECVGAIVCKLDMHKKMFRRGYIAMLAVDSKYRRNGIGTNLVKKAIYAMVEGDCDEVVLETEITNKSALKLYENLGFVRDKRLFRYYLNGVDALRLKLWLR
UniProt Q5TEU4: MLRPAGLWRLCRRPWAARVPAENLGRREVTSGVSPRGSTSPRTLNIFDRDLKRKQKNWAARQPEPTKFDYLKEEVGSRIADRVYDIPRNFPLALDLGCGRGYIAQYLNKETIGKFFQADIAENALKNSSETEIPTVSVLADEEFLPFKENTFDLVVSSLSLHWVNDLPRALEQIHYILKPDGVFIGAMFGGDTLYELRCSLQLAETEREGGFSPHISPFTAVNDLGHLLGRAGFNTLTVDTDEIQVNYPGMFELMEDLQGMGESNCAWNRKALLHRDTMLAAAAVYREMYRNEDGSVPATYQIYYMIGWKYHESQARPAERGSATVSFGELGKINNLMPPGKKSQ
UniProt P12036: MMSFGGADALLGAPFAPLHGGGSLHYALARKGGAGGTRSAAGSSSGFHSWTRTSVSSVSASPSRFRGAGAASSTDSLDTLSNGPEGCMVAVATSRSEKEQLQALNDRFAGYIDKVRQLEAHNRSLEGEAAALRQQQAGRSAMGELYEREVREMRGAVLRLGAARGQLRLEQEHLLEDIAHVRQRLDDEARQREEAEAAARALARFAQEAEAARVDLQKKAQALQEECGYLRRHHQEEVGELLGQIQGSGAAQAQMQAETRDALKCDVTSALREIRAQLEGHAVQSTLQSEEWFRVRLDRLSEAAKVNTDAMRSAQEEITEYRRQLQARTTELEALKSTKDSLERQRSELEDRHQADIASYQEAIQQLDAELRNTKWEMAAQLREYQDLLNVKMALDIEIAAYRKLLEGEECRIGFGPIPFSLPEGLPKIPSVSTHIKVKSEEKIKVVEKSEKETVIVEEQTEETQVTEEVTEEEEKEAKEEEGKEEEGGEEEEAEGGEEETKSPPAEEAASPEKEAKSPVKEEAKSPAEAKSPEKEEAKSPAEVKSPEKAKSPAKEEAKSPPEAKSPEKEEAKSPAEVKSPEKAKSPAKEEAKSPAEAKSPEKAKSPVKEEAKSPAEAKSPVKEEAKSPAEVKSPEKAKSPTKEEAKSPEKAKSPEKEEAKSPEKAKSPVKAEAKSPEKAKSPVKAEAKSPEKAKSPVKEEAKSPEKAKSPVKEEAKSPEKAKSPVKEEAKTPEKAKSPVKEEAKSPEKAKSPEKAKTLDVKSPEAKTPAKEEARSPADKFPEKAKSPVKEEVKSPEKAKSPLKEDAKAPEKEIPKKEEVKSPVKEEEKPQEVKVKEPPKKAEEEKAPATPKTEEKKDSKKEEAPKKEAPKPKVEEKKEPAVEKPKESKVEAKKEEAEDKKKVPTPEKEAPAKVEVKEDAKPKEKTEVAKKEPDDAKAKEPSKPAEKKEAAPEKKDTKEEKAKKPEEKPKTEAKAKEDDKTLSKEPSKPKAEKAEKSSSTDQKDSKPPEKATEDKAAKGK
UniProt O43920, whole entry, looked up: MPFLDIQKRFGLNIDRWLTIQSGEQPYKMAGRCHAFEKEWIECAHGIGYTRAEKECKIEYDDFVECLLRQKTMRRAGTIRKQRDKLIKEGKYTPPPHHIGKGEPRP
UniProt P41227: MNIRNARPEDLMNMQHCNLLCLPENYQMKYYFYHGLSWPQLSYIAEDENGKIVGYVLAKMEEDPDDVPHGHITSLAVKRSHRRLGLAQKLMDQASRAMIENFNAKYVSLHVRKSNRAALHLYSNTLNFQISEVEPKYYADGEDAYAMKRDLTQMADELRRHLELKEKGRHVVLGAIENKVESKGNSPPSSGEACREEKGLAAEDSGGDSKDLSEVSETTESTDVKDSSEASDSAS
UniProt Q6XQN6: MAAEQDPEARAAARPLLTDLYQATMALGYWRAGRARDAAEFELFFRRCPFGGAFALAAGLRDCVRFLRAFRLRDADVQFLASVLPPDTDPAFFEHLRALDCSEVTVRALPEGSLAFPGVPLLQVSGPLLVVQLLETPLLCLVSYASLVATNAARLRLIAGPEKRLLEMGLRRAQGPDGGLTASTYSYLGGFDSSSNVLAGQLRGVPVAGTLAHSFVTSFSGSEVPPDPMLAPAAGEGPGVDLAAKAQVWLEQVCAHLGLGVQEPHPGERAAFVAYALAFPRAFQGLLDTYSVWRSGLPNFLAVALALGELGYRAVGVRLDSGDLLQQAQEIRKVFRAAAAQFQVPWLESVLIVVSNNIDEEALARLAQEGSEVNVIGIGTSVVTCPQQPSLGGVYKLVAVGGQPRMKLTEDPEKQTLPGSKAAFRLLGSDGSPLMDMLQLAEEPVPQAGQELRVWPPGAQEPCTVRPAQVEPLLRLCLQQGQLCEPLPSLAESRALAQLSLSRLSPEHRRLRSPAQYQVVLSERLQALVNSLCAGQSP
UniProt Q9Y5N5: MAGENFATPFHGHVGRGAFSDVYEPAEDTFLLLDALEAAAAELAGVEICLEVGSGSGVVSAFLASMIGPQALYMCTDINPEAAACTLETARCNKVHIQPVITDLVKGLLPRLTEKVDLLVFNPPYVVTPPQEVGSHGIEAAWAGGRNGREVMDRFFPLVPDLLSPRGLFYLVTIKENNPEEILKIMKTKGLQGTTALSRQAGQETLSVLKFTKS
UniProt O95182, whole entry, looked up: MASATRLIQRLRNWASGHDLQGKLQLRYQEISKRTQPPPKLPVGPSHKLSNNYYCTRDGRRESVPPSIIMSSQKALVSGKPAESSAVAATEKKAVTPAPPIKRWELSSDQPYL
UniProt Q8IW45: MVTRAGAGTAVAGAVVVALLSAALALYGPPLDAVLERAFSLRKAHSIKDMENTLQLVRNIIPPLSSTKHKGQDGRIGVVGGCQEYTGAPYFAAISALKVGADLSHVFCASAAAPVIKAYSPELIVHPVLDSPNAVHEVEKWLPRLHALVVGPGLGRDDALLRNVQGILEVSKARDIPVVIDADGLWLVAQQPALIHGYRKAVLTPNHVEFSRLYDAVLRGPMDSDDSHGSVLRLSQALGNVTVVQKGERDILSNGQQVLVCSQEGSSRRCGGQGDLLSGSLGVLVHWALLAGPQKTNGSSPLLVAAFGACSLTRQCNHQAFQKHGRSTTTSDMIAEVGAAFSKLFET
UniProt Q9UHQ1: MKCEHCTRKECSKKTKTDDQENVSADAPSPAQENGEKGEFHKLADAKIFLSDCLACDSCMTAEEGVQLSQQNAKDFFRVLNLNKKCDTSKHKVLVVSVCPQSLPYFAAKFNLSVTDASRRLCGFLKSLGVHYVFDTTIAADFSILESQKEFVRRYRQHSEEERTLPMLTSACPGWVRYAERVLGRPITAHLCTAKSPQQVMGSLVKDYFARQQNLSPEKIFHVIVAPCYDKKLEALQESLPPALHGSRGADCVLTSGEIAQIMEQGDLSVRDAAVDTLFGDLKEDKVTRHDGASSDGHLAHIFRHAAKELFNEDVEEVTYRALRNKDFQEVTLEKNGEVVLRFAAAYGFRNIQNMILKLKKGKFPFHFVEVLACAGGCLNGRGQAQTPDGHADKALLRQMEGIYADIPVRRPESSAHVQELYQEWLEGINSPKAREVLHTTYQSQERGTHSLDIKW
UniProt Q15021, whole entry, looked up: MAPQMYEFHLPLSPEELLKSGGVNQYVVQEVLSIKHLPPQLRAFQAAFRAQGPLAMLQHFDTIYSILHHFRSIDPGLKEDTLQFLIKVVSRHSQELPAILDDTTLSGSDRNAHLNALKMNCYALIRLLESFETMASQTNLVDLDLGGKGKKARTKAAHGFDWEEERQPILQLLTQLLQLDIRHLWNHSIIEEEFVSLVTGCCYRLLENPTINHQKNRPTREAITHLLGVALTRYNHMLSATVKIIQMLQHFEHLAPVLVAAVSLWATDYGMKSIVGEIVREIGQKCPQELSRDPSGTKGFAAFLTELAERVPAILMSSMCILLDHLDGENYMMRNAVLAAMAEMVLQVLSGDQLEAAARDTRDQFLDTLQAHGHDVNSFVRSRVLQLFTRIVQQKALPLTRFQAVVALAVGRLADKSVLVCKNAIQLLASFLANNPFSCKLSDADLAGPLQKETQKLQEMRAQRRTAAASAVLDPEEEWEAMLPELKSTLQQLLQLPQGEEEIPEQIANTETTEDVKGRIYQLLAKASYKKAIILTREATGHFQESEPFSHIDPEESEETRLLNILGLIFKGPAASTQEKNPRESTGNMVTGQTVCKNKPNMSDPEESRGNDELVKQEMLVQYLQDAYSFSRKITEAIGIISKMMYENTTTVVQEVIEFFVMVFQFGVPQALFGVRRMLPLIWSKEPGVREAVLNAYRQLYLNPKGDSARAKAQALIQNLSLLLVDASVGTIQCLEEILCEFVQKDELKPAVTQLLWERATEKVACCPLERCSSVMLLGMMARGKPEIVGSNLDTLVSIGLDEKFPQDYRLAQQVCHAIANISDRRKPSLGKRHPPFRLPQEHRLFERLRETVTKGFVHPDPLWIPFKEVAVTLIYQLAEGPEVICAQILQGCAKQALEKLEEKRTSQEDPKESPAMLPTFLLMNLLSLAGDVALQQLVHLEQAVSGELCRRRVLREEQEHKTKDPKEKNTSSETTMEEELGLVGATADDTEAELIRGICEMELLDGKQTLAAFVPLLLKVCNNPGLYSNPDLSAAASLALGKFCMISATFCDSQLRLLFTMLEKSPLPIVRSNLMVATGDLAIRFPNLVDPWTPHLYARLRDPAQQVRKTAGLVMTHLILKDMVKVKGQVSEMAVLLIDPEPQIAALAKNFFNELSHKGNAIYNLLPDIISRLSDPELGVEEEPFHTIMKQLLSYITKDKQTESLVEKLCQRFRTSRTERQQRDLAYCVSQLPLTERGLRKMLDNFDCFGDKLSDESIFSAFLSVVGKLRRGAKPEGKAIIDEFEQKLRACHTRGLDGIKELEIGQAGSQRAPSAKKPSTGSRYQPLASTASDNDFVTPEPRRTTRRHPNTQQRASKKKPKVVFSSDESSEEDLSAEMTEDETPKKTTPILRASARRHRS
UniProt Q8NCW5: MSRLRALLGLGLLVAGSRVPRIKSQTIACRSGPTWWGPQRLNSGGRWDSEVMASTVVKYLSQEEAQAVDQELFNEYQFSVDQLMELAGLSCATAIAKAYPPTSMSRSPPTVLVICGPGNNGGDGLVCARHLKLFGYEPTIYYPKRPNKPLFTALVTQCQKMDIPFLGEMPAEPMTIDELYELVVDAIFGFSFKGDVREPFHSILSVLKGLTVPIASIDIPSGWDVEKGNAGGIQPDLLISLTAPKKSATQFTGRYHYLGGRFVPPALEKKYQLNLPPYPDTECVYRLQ
UniProt Q9GZM8: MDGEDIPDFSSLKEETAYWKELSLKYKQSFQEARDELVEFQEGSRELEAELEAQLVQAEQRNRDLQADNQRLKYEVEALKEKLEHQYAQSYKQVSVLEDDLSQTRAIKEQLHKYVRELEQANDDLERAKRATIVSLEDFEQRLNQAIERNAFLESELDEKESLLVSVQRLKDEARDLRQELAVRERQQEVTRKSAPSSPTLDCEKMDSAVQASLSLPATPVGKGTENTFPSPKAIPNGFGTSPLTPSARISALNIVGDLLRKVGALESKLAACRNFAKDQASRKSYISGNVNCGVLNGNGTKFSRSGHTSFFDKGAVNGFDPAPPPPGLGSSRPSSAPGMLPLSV
UniProt Q9UBB6: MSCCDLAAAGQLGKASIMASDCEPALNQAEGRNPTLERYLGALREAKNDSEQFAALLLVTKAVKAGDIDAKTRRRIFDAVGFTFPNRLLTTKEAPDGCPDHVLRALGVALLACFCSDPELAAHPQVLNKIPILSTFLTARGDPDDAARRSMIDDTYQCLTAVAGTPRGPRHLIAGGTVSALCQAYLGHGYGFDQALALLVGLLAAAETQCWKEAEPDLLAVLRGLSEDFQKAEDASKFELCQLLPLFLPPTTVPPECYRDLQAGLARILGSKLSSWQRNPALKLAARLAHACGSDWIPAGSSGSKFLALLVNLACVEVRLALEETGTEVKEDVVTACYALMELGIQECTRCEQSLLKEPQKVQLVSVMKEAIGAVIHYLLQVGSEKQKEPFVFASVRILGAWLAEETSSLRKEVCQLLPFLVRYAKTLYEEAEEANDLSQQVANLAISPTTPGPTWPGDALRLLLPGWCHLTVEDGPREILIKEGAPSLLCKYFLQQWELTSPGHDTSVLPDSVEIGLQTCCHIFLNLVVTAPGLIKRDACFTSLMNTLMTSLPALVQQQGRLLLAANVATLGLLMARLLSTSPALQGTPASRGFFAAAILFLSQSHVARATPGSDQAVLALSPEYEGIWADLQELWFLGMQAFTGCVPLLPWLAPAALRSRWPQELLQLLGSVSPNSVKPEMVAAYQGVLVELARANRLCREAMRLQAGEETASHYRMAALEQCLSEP

Compound: Cn1cc(-c2ccc3c(c2)CCN3C(=O)Cc2cccc(C(F)(F)F)c2)c2c(N)ncnc21
Assay: log2 fold change, soluble protein after heating vs DMSO (PISA); higher = thermal stabilisation; K562 cells, 10 uM, 30 min; active = over 0.2 and 3.5 SD of the protein, either way, in both replicates (recomputed)
In short: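 For each measurement, 10 μM compound was applied for 30 min to K562 cells at 2×10^6 cells/mL. Aliquots were heated for 3 min across 48°C-58°C, pooled, and extracted in PBS with 0.5% NP-40 at 4°C; the supernatant after 21,000xg for 90 min was soluble protein. This was quantified by TMTpro 16plex LC-MS/MS with channel sums equalised, and thermal stability was reported relative to control samples from duplicates, on a log2 fold-change scale.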

log2 fold change, inactive:
NDUFA4 (UniProt O00483) 0.039
MZT2A (UniProt Q6P582) 0.061
NDUFB6 (UniProt O95139) -0.059
NAA30 (UniProt Q147X3) 0.027
NDUFAF5 (UniProt Q5TEU4) 0.024
NEFH (UniProt P12036) -0.417
NCAPG2 isoform 2 (UniProt Q86XI2) -0.094
NDUFS5 (UniProt O43920) 0.001
NAA10 (UniProt P41227) 0.027
NDRG2 (UniProt Q9UN36) -0.006
NADSYN1 (UniProt Q6IA69) 0.019
NCOR2 (UniProt C9J0Q5) 0.02
NAP1L1 (UniProt P55209) -0.004
NECAP1 (UniProt Q8NC96) 0.046
NDUFA2 (UniProt O43678) 0.085
NCOR1 (UniProt O75376) 0.041
NAPRT (UniProt Q6XQN6) 0.042
NA, A0A0B4J2A0 0.025
N6AMT1 (UniProt Q9Y5N5) 0.05
NDUFA10 (UniProt O95299) 0.039
NEBL isoform 2 (UniProt O76041) -0.007
NDUFA7 (UniProt O95182) -0.005
NAXD (UniProt Q8IW45) 0.043
NARF (UniProt Q9UHQ1) 0.006
NCAPH (UniProt Q15003) -0.057
NCAPD2 (UniProt Q15021) -0.035
NCLN (UniProt Q969V3) -0.015
NDUFAF2 (UniProt Q8N183) 0.095
NAXE (UniProt Q8NCW5) 0.082
NDUFA11 (UniProt Q86Y39) 0.016
NAP1L4 isoform 2 (UniProt Q99733) -0.023
NDUFB5 (UniProt O43674) -0.009
NDEL1 isoform 2 (UniProt Q9GZM8) 0.051
NCDN isoform 3 (UniProt Q9UBB6) -0.028

An excerpt taken from the entries so far, for reference:
log2 fold change, inactive:
NCAPG2 isoform 2 (UniProt Q86XI2) -0.094
NDUFS5 (UniProt O43920) 0.001
